Square brackets hold non-standard residues; d marks the D form. * marks the point of attachment. His(Trt) = N[C@@H](Cc1cn(C(c2ccccc2)(c2ccccc2)c2ccccc2)cn1)C(=O)O; Boc = CC(C)(C)OC(=O)*; Aib = CC(C)(N)C(=O)O; OtBu = CC(C)(C)O*

This data set can be described thus: peptide synthesis. The conditions noted are these: late stage modification step.

For the substance Boc-[His(Trt)][Aib]E(OtBu)G-OH, the step yield is 58%.
